Some of the results follow.
Experiments:
Experiment in all cases: glycan array binding signal (z-score within array); higher = stronger binding
Settings in all cases: glycan notation: IUPAC condensed, linker removed
[1] = biological target: Neu5Ac(a2-6)GlcNAc(b1-4)GlcNAc(b1-4)GlcNAc
Method in brief: (§1)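 The binding signal is a Z-score computed within each array. Data were drawn from 3228 arrays in the Consortium for Functional Glycomics database, restricted to those with a known protein sequence. Scores were averaged over arrays of the same protein sequence at different concentrations or buffers, and over linkers, and negative values can be taken as non-binding.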

[2] = biological target: Neu5Ac(a2-8)Neu5Ac
Method in brief: as §1

[3] = biological target: Neu5Ac(a2-8)Neu5Ac(a2-3)Gal(b1-3)GalNAc(b1-4)[Neu5Ac(a2-3)]Gal(b1-4)Glc
Method in brief: as §1

[4] = biological target: Neu5Ac(a2-8)Neu5Ac(a2-3)Gal(b1-3)GalNAc(b1-4)[Neu5Ac(a2-8)Neu5Ac(a2-3)]Gal(b1-4)Glc
Method in brief: as §1

[5] = biological target: Neu5Ac(a2-8)Neu5Ac(a2-3)Gal(b1-4)Glc
Method in brief: as §1

[6] = biological target: Neu5Ac(a2-8)Neu5Ac(a2-3)Gal(b1-4)GlcNAc
Method in brief: as §1

[7] = biological target: Neu5Ac(a2-8)Neu5Ac(a2-3)[Gal(b1-3)GalNAc(b1-4)]Gal(b1-4)Glc
Method in brief: as §1

[8] = biological target: Neu5Ac(a2-8)Neu5Ac(a2-3)[GalNAc(b1-4)]Gal(b1-4)Glc
Method in brief: as §1

[9] = biological target: Neu5Ac(a2-8)Neu5Ac(a2-8)Neu5Ac
Method in brief: as §1

[10] = biological target: Neu5Ac(a2-8)Neu5Ac(a2-8)Neu5Ac(a2-3)Gal(b1-4)Glc
Method in brief: as §1

[11] = biological target: Neu5Ac(a2-8)Neu5Ac(a2-8)Neu5Ac(a2-3)[Gal(b1-3)GalNAc(b1-4)]Gal(b1-4)Glc
Method in brief: as §1

[12] = biological target: Neu5Ac(a2-8)Neu5Ac(a2-8)Neu5Ac(a2-3)[GalNAc(b1-4)]Gal(b1-4)Glc
Method in brief: as §1

[13] = biological target: Neu5Ac(a2-8)Neu5Ac(a2-8)Neu5Ac(a2-8)Neu5Ac(a2-3)[GalNAc(b1-4)]Gal(b1-4)Glc
Method in brief: as §1

[14] = biological target: Neu5Ac(a2-8)Neu5Gc(a2-3)Gal(b1-4)GlcNAc
Method in brief: as §1

[15] = biological target: Neu5Ac(b2-6)Gal(b1-4)GlcNAc
Method in brief: as §1

[16] = biological target: Neu5Ac(b2-6)GalNAc
Method in brief: as §1

[17] = biological target: Neu5Ac9Ac(a2-3)Gal(b1-3)GlcNAc
Method in brief: as §1

[18] = biological target: Neu5Ac9Ac(a2-3)Gal(b1-4)GlcNAc
Method in brief: as §1

[19] = biological target: Neu5Ac9Ac(a2-6)Gal(b1-4)GlcNAc
Method in brief: as §1

[20] = biological target: Neu5Gc(a2-3)Gal(b1-3)GlcNAc
Method in brief: as §1

[21] = biological target: Neu5Gc(a2-3)Gal(b1-3)[Fuc(a1-4)]GlcNAc
Method in brief: as §1

[22] = biological target: Neu5Gc(a2-3)Gal(b1-4)Glc
Method in brief: as §1

[23] = biological target: Neu5Gc(a2-3)Gal(b1-4)GlcNAc
Method in brief: as §1

[24] = biological target: Neu5Gc(a2-3)Gal(b1-4)GlcNAc(b1-3)Gal(b1-4)GlcNAc(b1-2)Man(a1-3)[Neu5Gc(a2-3)Gal(b1-4)GlcNAc(b1-3)Gal(b1-4)GlcNAc(b1-2)Man(a1-6)]Man(b1-4)GlcNAc(b1-4)GlcNAc
Method in brief: as §1

[25] = biological target: Neu5Gc(a2-3)Gal(b1-4)[Fuc(a1-3)]GlcNAc
Method in brief: as §1

[26] = biological target: Neu5Gc(a2-6)Gal(b1-4)GlcNAc
Method in brief: as §1

[27] = biological target: Neu5Gc(a2-6)GalNAc
Method in brief: as §1

[28] = biological target: Neu5Gc(a2-8)Neu5Ac(a2-3)Gal(b1-4)GlcNAc
Method in brief: as §1

[29] = biological target: Neu5Gc(a2-8)Neu5Gc(a2-3)Gal(b1-4)GlcNAc
Method in brief: as §1

[30] = biological target: Neu5Gc(a2-8)Neu5Gc(a2-3)Gal(b1-4)GlcNAc(b1-3)Gal(b1-4)GlcNAc
Method in brief: as §1

[31] = biological target: Neu5Gc(a2-8)Neu5Gc(a2-6)Gal(b1-4)GlcNAc
Method in brief: as §1

[32] = biological target: Neu5Gc(b2-6)Gal(b1-4)GlcNAc
Method in brief: as §1

B1: EfCBM33A (Enterococcus faecalis), Q838S1 (protein)
chain: MKKSLLTIVLAFSFVLGGAALAPTVSEAHGYVASPGSRAFFGSSAGGNLNTNVGRAQWEPQSIEAPKNTFITGKLASAGVSGFEPLDEQTATRWHKTNITTGPLDITWNLTAQHRTASWDYYITKNGWNPNQPLDIKNFDKIASIDGKQEVPNKVVKQTINIPTDRKGYHVIYAVWGIGDTVNAFYQAIDVNIQ
- glycan array binding signal (z-score) [1]: -0.944
- glycan array binding signal (z-score) [2]: -0.561
- glycan array binding signal (z-score) [3]: 1.18
- glycan array binding signal (z-score) [4]: -0.396
- glycan array binding signal (z-score) [5]: -0.426
- glycan array binding signal (z-score) [6]: 0.799
- glycan array binding signal (z-score) [7]: -0.505
- glycan array binding signal (z-score) [8]: 0.518
- glycan array binding signal (z-score) [9]: 0.016
- glycan array binding signal (z-score) [10]: -0.635
- glycan array binding signal (z-score) [11]: -0.429
- glycan array binding signal (z-score) [12]: -1.41
- glycan array binding signal (z-score) [13]: -0.254
- glycan array binding signal (z-score) [14]: -0.601
- glycan array binding signal (z-score) [15]: -0.199
- glycan array binding signal (z-score) [16]: -0.971
- glycan array binding signal (z-score) [17]: 1.28
- glycan array binding signal (z-score) [18]: 1.53
- glycan array binding signal (z-score) [19]: -0.482
- glycan array binding signal (z-score) [20]: 0.529
- glycan array binding signal (z-score) [21]: 1.23
- glycan array binding signal (z-score) [22]: -0.711
- glycan array binding signal (z-score) [23]: 0.624
- glycan array binding signal (z-score) [24]: -0.417
- glycan array binding signal (z-score) [25]: 0.222
- glycan array binding signal (z-score) [26]: -1.26
- glycan array binding signal (z-score) [27]: -0.798
- glycan array binding signal (z-score) [28]: -1.95
- glycan array binding signal (z-score) [29]: -1.75
- glycan array binding signal (z-score) [30]: -0.844
- glycan array binding signal (z-score) [31]: -0.736
- glycan array binding signal (z-score) [32]: 1.82
